From PMC3322157

The chains behind the UniProt entries cited, without tags or fusion partners. Residues count along the entry.
UniProt Q91YI0: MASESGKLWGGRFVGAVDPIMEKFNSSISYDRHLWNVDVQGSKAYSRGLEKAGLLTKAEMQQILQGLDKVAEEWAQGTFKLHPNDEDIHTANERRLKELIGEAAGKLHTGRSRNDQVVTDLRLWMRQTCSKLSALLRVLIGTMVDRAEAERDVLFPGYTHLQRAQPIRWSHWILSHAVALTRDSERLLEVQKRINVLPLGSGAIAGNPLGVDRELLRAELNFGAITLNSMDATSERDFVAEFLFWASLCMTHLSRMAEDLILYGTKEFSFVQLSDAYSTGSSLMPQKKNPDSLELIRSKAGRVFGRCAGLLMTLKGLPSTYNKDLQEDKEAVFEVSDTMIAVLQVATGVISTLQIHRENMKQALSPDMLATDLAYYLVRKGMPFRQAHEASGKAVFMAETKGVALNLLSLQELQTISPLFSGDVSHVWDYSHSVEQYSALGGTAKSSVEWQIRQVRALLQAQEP
UniProt P15105: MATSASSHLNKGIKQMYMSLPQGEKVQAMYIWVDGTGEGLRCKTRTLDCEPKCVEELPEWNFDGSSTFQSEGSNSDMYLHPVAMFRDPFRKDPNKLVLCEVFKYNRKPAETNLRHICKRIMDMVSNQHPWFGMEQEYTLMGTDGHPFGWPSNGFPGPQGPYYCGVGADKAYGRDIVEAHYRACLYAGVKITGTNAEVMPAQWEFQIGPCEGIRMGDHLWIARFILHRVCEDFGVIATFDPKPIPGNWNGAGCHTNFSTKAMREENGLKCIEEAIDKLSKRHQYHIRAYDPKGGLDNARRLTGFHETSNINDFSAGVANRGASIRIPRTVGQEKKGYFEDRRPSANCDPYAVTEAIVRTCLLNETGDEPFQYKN
UniProt Q91WD5, residues 34-463: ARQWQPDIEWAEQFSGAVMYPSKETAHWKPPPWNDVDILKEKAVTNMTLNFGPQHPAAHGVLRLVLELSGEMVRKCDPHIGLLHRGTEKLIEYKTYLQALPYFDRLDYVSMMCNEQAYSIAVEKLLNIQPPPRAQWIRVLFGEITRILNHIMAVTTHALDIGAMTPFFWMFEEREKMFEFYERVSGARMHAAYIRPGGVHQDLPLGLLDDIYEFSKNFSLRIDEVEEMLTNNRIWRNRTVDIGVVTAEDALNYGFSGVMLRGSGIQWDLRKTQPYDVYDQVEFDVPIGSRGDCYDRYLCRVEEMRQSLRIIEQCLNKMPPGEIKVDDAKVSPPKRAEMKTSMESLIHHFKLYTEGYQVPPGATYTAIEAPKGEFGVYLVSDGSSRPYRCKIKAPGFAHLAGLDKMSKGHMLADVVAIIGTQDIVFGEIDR
UniProt P97807, residues 42-507: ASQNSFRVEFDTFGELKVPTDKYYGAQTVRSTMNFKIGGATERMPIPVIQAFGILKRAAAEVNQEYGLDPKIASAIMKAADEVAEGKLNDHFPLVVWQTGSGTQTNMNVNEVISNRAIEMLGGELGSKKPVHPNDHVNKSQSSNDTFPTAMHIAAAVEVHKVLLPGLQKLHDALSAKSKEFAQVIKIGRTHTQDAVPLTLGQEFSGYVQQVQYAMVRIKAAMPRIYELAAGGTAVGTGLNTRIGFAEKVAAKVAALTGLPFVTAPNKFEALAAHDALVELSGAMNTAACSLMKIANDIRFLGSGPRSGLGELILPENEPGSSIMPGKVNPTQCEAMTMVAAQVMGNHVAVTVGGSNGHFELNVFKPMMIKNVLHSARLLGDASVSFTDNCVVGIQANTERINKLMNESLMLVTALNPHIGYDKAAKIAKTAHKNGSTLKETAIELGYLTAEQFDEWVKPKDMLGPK
UniProt P26443, residues 54-558: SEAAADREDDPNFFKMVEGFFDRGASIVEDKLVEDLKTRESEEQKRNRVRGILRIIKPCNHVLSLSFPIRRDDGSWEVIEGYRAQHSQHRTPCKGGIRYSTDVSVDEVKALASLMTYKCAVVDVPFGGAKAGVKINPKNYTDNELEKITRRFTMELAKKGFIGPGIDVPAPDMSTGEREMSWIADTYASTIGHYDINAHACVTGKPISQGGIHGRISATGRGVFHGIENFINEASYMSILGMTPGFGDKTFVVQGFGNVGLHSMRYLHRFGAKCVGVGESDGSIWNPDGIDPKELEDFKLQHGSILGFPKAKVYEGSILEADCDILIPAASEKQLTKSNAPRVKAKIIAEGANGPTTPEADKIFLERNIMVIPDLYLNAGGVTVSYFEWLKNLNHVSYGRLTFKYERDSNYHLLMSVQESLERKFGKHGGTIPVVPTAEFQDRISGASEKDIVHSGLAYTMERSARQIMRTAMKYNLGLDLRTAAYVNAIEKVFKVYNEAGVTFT
UniProt Q9D0K2, residues 40-520: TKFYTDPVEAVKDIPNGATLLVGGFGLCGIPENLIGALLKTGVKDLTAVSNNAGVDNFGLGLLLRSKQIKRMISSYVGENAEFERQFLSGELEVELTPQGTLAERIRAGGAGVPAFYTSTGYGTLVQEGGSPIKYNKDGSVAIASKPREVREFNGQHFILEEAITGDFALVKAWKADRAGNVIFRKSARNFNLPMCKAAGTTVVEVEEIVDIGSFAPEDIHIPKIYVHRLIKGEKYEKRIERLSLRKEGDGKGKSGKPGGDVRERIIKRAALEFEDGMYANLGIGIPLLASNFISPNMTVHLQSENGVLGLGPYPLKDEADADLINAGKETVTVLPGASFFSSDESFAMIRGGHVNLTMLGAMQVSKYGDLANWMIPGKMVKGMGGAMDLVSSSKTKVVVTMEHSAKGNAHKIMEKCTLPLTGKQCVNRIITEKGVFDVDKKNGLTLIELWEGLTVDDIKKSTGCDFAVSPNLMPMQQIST

T1: Histidine-tagged SCHAD (UniProt Q16836)
T1 sequence: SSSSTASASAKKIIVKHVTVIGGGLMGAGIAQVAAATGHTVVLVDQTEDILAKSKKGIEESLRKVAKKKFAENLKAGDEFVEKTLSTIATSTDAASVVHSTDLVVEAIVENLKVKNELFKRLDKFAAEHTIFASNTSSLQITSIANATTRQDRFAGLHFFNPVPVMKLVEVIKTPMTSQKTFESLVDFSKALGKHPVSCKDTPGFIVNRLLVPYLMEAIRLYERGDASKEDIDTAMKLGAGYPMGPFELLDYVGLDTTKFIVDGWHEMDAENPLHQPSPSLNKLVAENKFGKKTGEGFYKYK

B1: carnitine palmitoyl transferase 2 (protein, UniProt P52825 26-658)
chain: SAVSGPAEYLQHSIVPTMHYQDSLPRLPIPKLEDTMKRYLSAQKPLLNDSQFRKTEVLCKDFENGIGKELHAHLLAQDKQNKHTSYISGPWFDMYLTARDSVVLNFNPFMAFNPDPKSEYNDQLTRATNLTVSAVRFLKTLRAGLLEPEVFHLNPARSDTDAFKRLIRFVPSSLSWYGAYLVNAYPLDMSQYFRLFNSTRIPKPSRDELFTDTKARHLLVLRKGHFYVFDVLDQDGNIVNPSEIQAHLKYILSDSSPVPEFPLAYLTSENRDVWAELRQKLIHGGNEETLRKVDSAVFCLCLDDFPMKDLVHLSHTMLHGDGTNRWFDKSFNLIVAKDGTAAVHFEHAWGDGVAVLRFFNEVFRDSTQTPAIAPQSQPAATDSSVSVQKLSFKLSSALKAGVTAAKEKFDATMKTLTIDAIQFQRGGKEFLKKKKLSPDAVAQLAFQMAFLRQYGQTVATYESCSTAAFKHGRTETIRPASIFTKRCSEAFVREPSKHSVGELQHMMAECSKYHGQLTKEAAMGQGFDRHLFALRYLAAARGVTLPELYQDPAYQRINHNILSTSTLSSPAVSLGGFAPVVPDGFGIAYAVHDDWIGCNVSSYSGRNAREFLHCVQKCLEDMFDALEGKAIKT
B2: long chain acyl-CoA dehydrogenase (protein, UniProt P51174 31-430)
chain: GAEARLETPSAKKLTDVGIRRIFSSEHDIFRESVRKFFQEEVIPHHTEWEKAGEVSREVWEKAGKQGLLGINIAEKHGGIGGDLLSTAVTWEEQAYSNCTGPGFSLHSDIVMPYIANYGTKEQIEKFIPQMTAGKCIGAIAMTEPGAGSDLQGVRTNAKRSGSDWILNGSKVFITNGWLSDLVIVVAVTNREARSPAHGISLFLVENGMKGFIKGRKLHKMGMKAQDTAELFFEDVRLPANALLGEENKGFYYLMQELPQERLLIAELAISACEFMFEETRNYVKQRKAFGKTVAHIQTVQHKLAELKTHICVTRAFVDSCLQLHETKRLDSGSASMAKYWASELQNSVAYECVQLHGGWGYMWEYPIAKAYVDARVQPIYGGTNEIMKELIARQIVSDS
B3: ACAD 10 (protein, UniProt Q8K370 1-1069)
chain: MLVRRLFQPSTLHWAWRTTALNHPLGRHQGGLRWTHSGGRSYRAVIFDTGGVLVPSPGTVAVGWEVQNHVPSGTIVKAFIRGGDSGPWIRFIKGEITTEHFLEEFGRLCSEIAKTSVPVSSYFSLLTSEQVTKQFPVMTQAISQIRAKGLQTAVLTNNFHLSSGESFLPLDRKQFDVVVESCLEGICKPDPRIFQLCLQRLSLQPSEAIFLDDLGSNLKVAASLGIHTIKVDRPETAVKELEALLGFPLHLGVPNTRPVRKTMAIPQDALEKYLKGLLGTHSTGPMELLQFDHGQSNPTYYIRLADRQLVLRKKPSGTLLPSAHAIEREFRIMKALANAGVPVPTVLDLCEDSSIIGTPFYLMEYCPGIIYKDPSLPGLEPSRREAIYTAMNQVLCRIHSVDLQATSLDSFGKQGDYIPRQVQTWTKQYRAAETSSIPAMERLIQWLPLHLPRQQRTTLVHGDFRLDNLIFHPEKAEVLAVLDWELSTLGDPFADVAYSCLAYYLPSSFPILRGFRDQDVTKLGIPTVEEYFRMYCLNMGIPPIDNWNFYMAFSFFRVAAILQGVYKRSLTGQASSATAQQSGKLTESMAELAWDFATKEGFRVFKEMPATKTLSRSYHAWAGPRSPRTPKGVRGHSTVAAASPSHEAKGGLVISPEGLSPAVRKLYEQLVQFIEQKVYPLEPELQRHQASADRWSPSPLIEDLKEKAKAEGLWNLFLPLETDPEKKYGAGLTNVEYAHLCEVMGMSLYASEIFNCSAPDTGNMEILVRYGTEEQKARWLVPLLEGRIRSCFAMTEPQVASSDASNIEASIKEEDGCYVINGHKWWTSGILDPRCKLCVFMGKTDPQAPRHQQQSMLLVPMDSPGITVIRPLSVFGLEDPPGGHGEVRFKDVRVPKENILLGPGRGFEIAQGRLGPGRIHHCMRLIGYSERALALMKTRVMSRTAFGKPLVEQGTILADIARSRVEIEQARLLVLKAAHLMDVAGNKTAALDIAMIKMVVPSMAYHVIDRAIQAFGAAGLSSDYPLAQFFGWARALRFADGPDEVHQLTVAKMELKNQSRMQEPAVPRV
B4: carbamoyl phosphate synthase 1 (mouse) (protein, UniProt Q8C196 39-1500)
chain: LSVKAKTAHIVLEDGTKMKGYSFGHPSSVAGEVVFNTGLGGYPEALTDPAYKGQILTMANPIIGNGGAPDTTARDELGLNKYMESDGIKVAGLLVLNYSNDYNHWLATKSLGQWLQEEKVPAIYGVDTRMLTKIIRDKGTMLGKIEFEGQSVDFVDPNKQNLIAEVSTKDVKVFGKGNPTKVVAVDCGIKNNVIRLLVKRGAEVHLVPWNHDFTQMEYDGLLIAGGPGNPALAQPLIQNVKKILESDRKEPLFGISTGNIITGLAAGAKSYKMSMANRGQNQPVLNITNRQAFITAQNHGYALDNTLPAGWKPLFVNVNDQTNEGIMHESKPFFAVQFHPEVSPGPTDTEYLFDSFFSLIKKGKGTTITSVLPKPALVASRVEVSKVLILGSGGLSIGQAGEFDYSGSQAVKAMKEENVKTVLMNPNIASVQTNEVGLKQADAVYFLPITPQFVTEVIKAERPDGLILGMGGQTALNCGVELFKRGVLKEYGVKVLGTSVESIMATEDRQLFSDKLNEINEKIAPSFAVESMEDALKAADTIGYPVMIRSAYALGGLGSGICPNKETLIDLGTKAFAMTNQILVERSVTGWKEIEYEVVRDADDNCVTVCNMENVDAMGVHTGDSVVVAPAQTLSNAEFQMLRRTSVNVVRHLGIVGECNIQFALHPTSMEYCIIEVNARLSRSSALASKATGYPLAFIAAKIALGIPLPEIKNVVSGKTSACFEPSLDYMVTKIPRWDLDRFHGTSSRIGSSMKSVGEVMAIGRTFEESFQKALRMCHPSVDGFTPRLPMNKEWPANLDLKKELSEPSSTRIYAIAKALENNMSLDEIVRLTSIDKWFLYKMRDILNMDKTLKGLNSDSVTEETLRKAKEIGFSDKQISKCLGLTEAQTRELRLKKNIHPWVKQIDTLAAEYPSVTNYLYVTYNGQEHDIKFDEHGIMVLGCGPYHIGSSVEFDWCAVSSIRTLRQLGKKTVVVNCNPETVSTDFDECDKLYFEELSLERILDIYHQEACNGCIISVGGQIPNNLAVPLYKNGVKIMGTSPLQIDRAEDRSIFSAVLDELKVAQAPWKAVNTLNEALEFANSVGYPCLLRPSYVLSGSAMNVVFSEDEMKRFLEEATRVSQEHPVVLTKFVEGAREVEMDAVGKEGRVISHAISEHVEDAGVHSGDATLMLPTQTISQGAIEKVKDATRKIAKAFAISGPFNVQFLVKGNDVLVIECNLRASRSFPFVSKTLGVDFIDVATKVMIGESIDEKRLPTLEQPIIPSDYVAIKAPMFSWPRLRDADPILRCEMASTGEVACFGEGIHTAFLKAMLSTGFKIPQKGILIGIQQSFRPRFLGVAEQLHNEGFKLFATEATSDWLNANNVPATPVAWPSQEGQNPSLSSIRKLIRDGSIDLVINLPNNNTKFVHDNYVIRRTAVDSGIALLTNFQVTKLFAEAVQKSRTVDSKSLFHYRQYSAGKAA
B5: argininosuccinate synthase (protein, UniProt P16460 1-412)
chain: MSSKGSVVLAYSGGLDTSCILVWLKEQGYDVIAYLANIGQKEDFEEARKKALKLGAKKVFIEDVSKEFVEEFIWPAVQSSALYEDRYLLGTSLARPCIARRQVEIAQREGAKYVSHGATGKGNDQVRFELTCYSLAPQIKVIAPWRMPEFYNRFKGRNDLMEYAKQHGIPIPVTPKSPWSMDENLMHISYEAGILENPKNQAPPGLYTKTQDPAKAPNSPDVLEIEFKKGVPVKVTNIKDGTTRTTSLELFMYLNEVAGKHGVGRIDIVENRFIGMKSRGIYETPAGTILYHAHLDIEAFTMDREVRKIKQGLGLKFAELVYTGFWHSPECEFVRHCIQKSQERVEGKVQVSVFKGQVYILGRESPLSLYNEELVSMNVQGDYEPIDATGFININSLRLKEYHRLQSKVTAK
B6: hydroxymethyl-CoA synthase (protein, UniProt P54869 38-508)
chain: TIPPAPLAKTDTWPKDVGILALEVYFPAQYVDQTDLEKFNNVEAGKYTVGLGQTRMGFCSVQEDINSLCLTVVQRLMERTKLPWDAVGRLEVGTETIIDKSKAVKTVLMELFQDSGNTDIEGIDTTNACYGGTASLFNAANWMESSYWDGRYALVVCGDIAVYPSGNARPTGGAGAVAMLIGPKAPLVLEQGLRGTHMENAYDFYKPNLASEYPLVDGKLSIQCYLRALDRCYAAYRKKIQNQWKQAGNNQPFTLDDVQYMIFHTPFCKMVQKSLARLMFNDFLSSSSDKQNNLYKGLEAFRGLKLEETYTNKDVDKALLKASLDMFNQKTKASLYLSTNNGNMYTSSLYGCLASLLSHHSAQELAGSRIGAFSYGSGLAASFFSFRVSKDASPGSPLEKLVSSVSDLPKRLDSRRRMSPEEFTEIMNQREQFYHKVNFSPPGDTSNLFPGTWYLERVDEMHRRKYARCPV
B7: hydroxymethyl-coA lyase (protein, UniProt P38060 28-325)
chain: TLPKQVKIVEVGPRDGLQNEKSIVPTPVKIRLIDMLSEAGLPVIEATSFVSPKWVPQMADHSDVLKGIQKFPGINYPVLTPNMKGFEEAVAAGAKEVSVFGAVSELFTRKNANCSIEESFQRFAGVMQAAQAASISVRGYVSCALGCPYEGKVSPAKVAEVAKKLYSMGCYEISLGDTIGVGTPGLMKDMLTAVMHEVPVTALAVHCHDTYGQALANTLVALQMGVSVVDSSVAGLGGCPYAKGASGNLATEDLVYMLNGLGIHTGVNLQKLLEAGDFICQALNRKTSSKVAQATCKL

These molecules were tested against T1, Histidine-tagged SCHAD (assay: affinity purification with mass spectrometry; His-tagged SCHAD linked to agarose beads (AminoLink Plus, cyanoborohydride); homogenates of mouse liver, muscle, heart, kidney and brain (wild type and SCHAD knockout) in 50 mM Tris-HCl, 0.1% Triton-X 100, 1 mg/mL, 4°C overnight; eluted proteins identified by LC-MS/MS, BSA beads as control; only the target purified).

binding, binds:
argininosuccinate lyase (from UniProt Q91YI0 1-464)
isocitrate dehydrogenase (mouse (endogenous in mouse tissues))
glutamine synthase (mouse) (from UniProt P15105 1-373)
glycogen phosphorylase (mouse)
3-ketoacyl-coA thiolase (mouse (endogenous in mouse tissues))
NADH dehydrogenase iron-sulfurprotein2 (from UniProt Q91WD5 34-463)
fumarate hydratase (from UniProt P97807 42-507)
glutamate dehydrogenase (mouse) (from UniProt P26443 54-558)
succinyl-CoA: 3-ketoacid acyl transferase (from UniProt Q9D0K2 40-520)
aspartate aminotransferase (mouse)
B1
B2
B3
B4
B5
B6
B7

These are yes or no findings as the source states them, for the method shown. In cells and extracts the contact can be indirect. A yes stands for co-enrichment or nearness to the bait. Other partners may have been found. Tags and fused reporters may be left off the sequences shown.
